# Data as given in PubChem BioAssay AID540275 (National Center for Advancing Translational Sciences (NCATS), 2011).
# Chains of the proteins cited; added tags and fusions are not shown.
# UniProt Q8NER1, whole entry, looked up: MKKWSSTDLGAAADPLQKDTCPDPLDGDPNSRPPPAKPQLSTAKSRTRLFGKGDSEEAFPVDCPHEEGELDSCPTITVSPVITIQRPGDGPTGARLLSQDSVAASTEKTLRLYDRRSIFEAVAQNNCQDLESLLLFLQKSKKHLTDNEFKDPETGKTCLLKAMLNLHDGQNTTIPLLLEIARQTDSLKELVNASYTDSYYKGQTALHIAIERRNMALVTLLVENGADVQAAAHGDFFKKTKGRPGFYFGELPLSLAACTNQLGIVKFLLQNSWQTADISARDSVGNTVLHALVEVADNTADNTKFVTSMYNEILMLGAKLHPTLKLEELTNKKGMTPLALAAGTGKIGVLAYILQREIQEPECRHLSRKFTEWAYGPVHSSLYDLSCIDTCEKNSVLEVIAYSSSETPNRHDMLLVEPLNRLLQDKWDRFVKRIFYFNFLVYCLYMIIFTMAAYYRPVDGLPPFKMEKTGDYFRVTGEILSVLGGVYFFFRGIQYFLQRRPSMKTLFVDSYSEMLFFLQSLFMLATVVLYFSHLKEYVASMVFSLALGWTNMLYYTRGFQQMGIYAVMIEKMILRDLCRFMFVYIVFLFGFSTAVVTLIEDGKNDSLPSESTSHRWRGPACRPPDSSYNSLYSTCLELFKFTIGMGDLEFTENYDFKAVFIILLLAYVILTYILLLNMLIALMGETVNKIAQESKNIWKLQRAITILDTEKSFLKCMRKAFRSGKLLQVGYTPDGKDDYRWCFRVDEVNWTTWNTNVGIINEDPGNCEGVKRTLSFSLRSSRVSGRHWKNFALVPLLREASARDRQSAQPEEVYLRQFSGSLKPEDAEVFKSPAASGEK
# The whole screen tested about 320,000 compounds, of which about 620 (0.19%) were called active. Inconclusive results, whose numbers are uncertain, are shown with a selection of clear calls. Rule as the data show it: active = activation above about 80%; inconclusive = between about 30% and that limit; inactive = weaker than that.
# Molecular target: Transient receptor potential cation channel subfamily V member 1 (Homo sapiens) (UniProt Q8NER1)
# Assay: HTS Assay for Compounds that Act as Agonists of the Vanilloid Receptor 1; also: 0% is about no effect
# Conditions: TRPV1-expressing cells, Fluo-8 calcium influx, agonist mode; at 8.33 µM, active compounds read high
# How it was run: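 TRPV1-expressing cells were cultured overnight at 35.5C and loaded with Fluo-8 calcium dye for 40 to 90 min at room temperature. After a 10 s baseline, compound was added and calcium influx was read kinetically for 3 min (ex 480/em 520 nm).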
row,SMILES,activation
1,Cc1ccc(C(=O)Nc2nc(C)c(C(=O)Nc3ccc4c(c3)CCC4)s2)cc1,inconclusive: 33.8%
2,Cc1ccc(C(=O)Nc2ccc3c(c2)C(=O)NC3=O)cc1,inconclusive: 66.1%
3,COc1cc(OC)cc(C(=O)NCCN2C(=O)S/C(=C\c3cccs3)C2=O)c1,inactive: 0.0623%
4,C=CCNC1=C(Cl)C(=O)N(Cc2ccccc2)C1=O,inconclusive: 47.2%
5,CCC(CC)NC(=O)CON=C1c2ccccc2-c2ccccc21,inconclusive: 36.8%
6,Cc1ccc(C)c(Nc2c([N+](=O)[O-])c(=O)oc3ccccc23)c1,inactive: 2.51%
7,Cc1ccccc1N=CC1=C(O)c2ccccc2C1=O,inactive: 9%
8,Cc1ccc(C(=O)CC(Nc2ccc(F)cc2)c2ccccc2)cc1 (stereo not drawn),inconclusive: 44.9%
9,Cc1c(C(=O)NCCSCc2ccccc2)cccc1[N+](=O)[O-],inconclusive: 53.2%
10,C/C(=N\NC(=O)NC1CCCCC1)c1ccc(Cl)s1,inconclusive: 34.2%
11,Cc1oc(-c2cccc3ccccc23)nc1CN1CCN(c2ncnc3ccccc23)CC1,inactive: 9.4%
12,CCCCn1c(NC(=S)Nc2ccccc2)nc2ccccc21,inactive: 0.504%
13,CCOc1ccccc1CN1CCN(Cc2cc(=O)c3ccccc3[nH]2)CC1CCO (stereo not drawn),inactive: 0.979%
14,COc1ccc(C2=NN(c3ccc(C=O)cc3)C(c3ccccc3)C2)cc1 (stereo not drawn),inactive: 1.11%
15,COC(=O)c1cc(C(=O)NCC2CCCCC2)cc([N+](=O)[O-])c1,inconclusive: 32.3%
16,COc1ccc(NC(C)C(=O)N/N=C/c2ccccc2OCc2cccc(Br)c2)cc1 (stereo not drawn),inactive: 2.74%
17,CCCCn1nnnc1SCC(=O)c1ccc(C)c(C)c1,inconclusive: 39%
18,CCc1cc2cc3c(cc2nc1SCC(=O)Nc1cc(C)on1)OCO3,inactive: -3.67%
19,COc1cc(NC(=O)c2ccccc2OCc2ccccc2)cc(OC)c1OC,inconclusive: 75.7%
20,Cc1ccc(C(CC(=O)N2CCCCC2)c2ccccc2)c(O)c1C (stereo not drawn),inconclusive: 41.9%
21,CC1CCN(Cc2c(C(=O)N3CCc4ccccc4C3)nc3ccc(Cl)cn23)CC1,inconclusive: 42.1%
22,CCCSc1nsc(NC(=O)Nc2ccc(F)cc2F)n1,inconclusive: 30.9%
23,COc1ccc(/C=C2\Sc3ccc(C(=O)NC4CC4)cc3N(C)C2=O)cc1OC,inactive: 4.24%
24,COc1ccc(CC(=O)N/N=C(\C)c2cccc(NC(=O)C3CC3)c2)cc1,inactive: -4.68%

# In the list so far, these contain an aryl thioether with sulfur outside any ring.
row,SMILES,activation
17,CCCCn1nnnc1SCC(=O)c1ccc(C)c(C)c1,inconclusive: 39%
18,CCc1cc2cc3c(cc2nc1SCC(=O)Nc1cc(C)on1)OCO3,inactive: -3.67%
22,CCCSc1nsc(NC(=O)Nc2ccc(F)cc2F)n1,inconclusive: 30.9%

# Going on with the list:

row,SMILES,activation
1,Cc1c(/C=N/NC(=O)COc2ccccc2[N+](=O)[O-])c2ccccc2n1C,inactive: -7.9%
2,O=C(Nc1ccc(-c2nc3ncccc3o2)cc1)c1ccco1,inactive: 0.959%
3,O=C(CCCc1nc2ccccc2s1)NC(c1ccccc1)c1ccccc1,inconclusive: 50.4%
4,CCn1cnc2cc(NCc3cccs3)ccc21,inactive: -2.54%
5,COc1ccc(-c2nc3c4ccccc4[nH]c(=O)n3n2)cc1,inactive: 1.03%
6,COc1ccc(NC(=O)c2coc(C)c2)cc1,inconclusive: 41.6%
7,COc1ccccc1CNC(=O)COc1ccc2c(c1)CCC2,inconclusive: 39.1%
8,Cc1nc2ccc(F)cc2cc1C(=O)Nc1ccc(Cl)c(Cl)c1,inconclusive: 79.3%
9,O=C(NCCOc1nc(N2CCOCC2)nc(N2CCOCC2)n1)Nc1ccc(Cl)cc1,inconclusive: 57%
10,COc1ccc(CC(C)CC(=O)Nc2ccc(OC)cc2)cc1 (stereo not drawn),inconclusive: 34.2%
11,COc1cccc(NC(=S)NCc2ccccc2)c1,inconclusive: 34%
12,O=C(NCCNC(=O)c1cc(F)cc(F)c1)c1cc(F)cc(F)c1,inconclusive: 42.1%
13,O=C1NC(c2ccccn2)Nc2sc3c(c21)CCC3 (stereo not drawn),inactive: -1.4%
14,COc1cc(C)c(/C=C(\C#N)C(=O)Nc2ccc(C)cc2)cc1C(C)C,inconclusive: 57.6%
15,Cc1ccc(-c2cc(C(=O)OCC(=O)NC3CC3)c3ccccc3n2)cc1,inconclusive: 54.3%
16,CCc1nc(N2CCN(C(=S)NCCCOC)CC2)c2c3c(sc2n1)CCCC3,inconclusive: 52.7%
17,CCOC(=O)C1CCCc2c1[nH]c1ccc(Cl)cc21 (stereo not drawn),inconclusive: 37.2%
18,CC(C)CCNC(=O)CCn1c(=S)oc2ccccc21,inactive: 5.39%
19,COc1ccc(OCCSc2nnc(CCNC(=O)c3ccc(OC)cc3)n2C)cc1,inactive: -3.94%
20,CCCCCC1(C)NC(=S)N(c2ccccc2)N1 (stereo not drawn),inactive: 6.01%
21,NNC(=O)CSCc1nc(-c2ccc(Cl)cc2)cs1,inconclusive: 61.9%
22,CC(NC(=O)CN(C)CC(=O)Nc1ccccc1Br)c1ccccc1 (stereo not drawn),inconclusive: 40.1%
23,CCc1ccc(NC(=S)N2CCN(c3cccc(OC)c3)CC2)cc1,inconclusive: 57.8%
24,CC(C)(C)c1ccc(OCCn2ccccc2=O)cc1,inconclusive: 50.1%

row,SMILES,activation
1,O=S1(=O)N=C(N2CCOCC2)c2ccccc21,inactive: -0.968%
2,CCCCCCOc1ccc(/C=C/C(=O)N2CCOCC2)cc1OC,inconclusive: 76.8%
3,O=S(=O)(Nc1ccc(-c2nc3cccnc3s2)cc1)c1ccccc1F,inactive: 5.2%
4,CC(=O)N(C)c1nc(-c2ccc(Cl)cc2)cs1,inconclusive: 64%
5,O=C(NCCc1ccccc1)c1cc2sccc2n1Cc1ccccc1,inconclusive: 35.8%
6,O=C(N/N=C(\c1ccccc1)c1cccnc1)c1cccc(F)c1,inconclusive: 68.1%
7,O=C(CCn1ccc2cc(S(=O)(=O)N3CCCC3)ccc21)NCc1cccc(F)c1,inconclusive: 50.1%
8,CC(=O)c1cccc(NC(=O)Nc2ccccc2)c1,inconclusive: 42.6%
9,CC(C)Cc1cc(C(=O)N2CCCC(CO)(Cc3ccc(F)cc3)C2)no1 (stereo not drawn),inconclusive: 31.3%
10,Cc1oc(S(=O)(=O)N2CCOCC2)cc1C(=O)Nc1ccc(F)cc1,inconclusive: 35.8%
11,Fc1ccc(-c2n[nH]c(=S)n2CC2CCCO2)cc1 (stereo not drawn),inactive: -0.413%
12,Cc1cc([N+](=O)[O-])nn1CCCC(=O)NC(C)c1ccccc1 (stereo not drawn),inactive: -5.27%
13,Cc1ccc(S(=O)(=O)N2CCCCC2)cc1NC(=O)c1cncc(Br)c1,inconclusive: 30.7%
14,CCCCN(CC)CCNC(=O)c1cn(-c2ccc(Cl)cc2)c(=O)c2ccccc12,inactive: -1.28%
15,Cc1ccc(NC(=O)c2nnn(CC(=O)Nc3ccc4c(c3)OCO4)c2N)cc1C,inconclusive: 50.2%
16,Cc1ccc(-c2nnc(-c3ccccc3S(=O)(=O)Cc3ccc(Cl)cc3)o2)cc1,inactive: 10.8%
17,CC(=O)N/N=C/c1c(C)[nH]n(-c2ccccc2)c1=O,inconclusive: 51.5%
18,CN(CC(=O)Nc1ccc(Cl)cc1)C1CCCCC1,inconclusive: 70%
19,Cc1sc2cc3c(c(C(=O)c4ccccc4)[n+]2c1C)-c1cccc2cccc-3c12,inactive: -0.263%
20,CC1(C)Cc2c(cnn2-c2cccc(F)c2)C(NC(=O)Cn2cccn2)C1 (stereo not drawn),inconclusive: 34.4%
21,CC(C)CN(C(=O)c1cccc([N+](=O)[O-])c1)c1c(N)n(CC(C)C)c(=O)[nH]c1=O,inactive: 0.127%
22,Cc1ccc(NC(=O)C2C3/C=C\CCCCC32)cc1C (stereo not drawn),inconclusive: 39.3%
23,O=C(Nc1nnc(-c2ccccc2)s1)c1cccc(S(=O)(=O)N2CCOCC2)c1,inconclusive: 71.4%
24,Cc1ccc(CNC(=O)CCSCc2ccccc2F)cc1,inconclusive: 75.7%

row,SMILES,activation
1,CC(C)c1cc(C(=O)N/N=C/c2ccoc2)cs1,inconclusive: 44.7%
2,Cc1cc(NC(=O)c2c(F)cccc2Cl)n(-c2nc3ccccc3[nH]2)n1,inconclusive: 43.3%
3,COc1ccc(C(=O)N2CCN(Cc3ccccn3)CC2)cc1,inactive: -0.428%
4,O=C(Nc1ncc(C(F)(F)F)cc1Cl)c1ccc(S(=O)(=O)N2CCOCC2)cc1,inconclusive: 39.4%
5,Cc1ccc(C(=O)/C=C/c2ccc(Br)cc2)o1,inconclusive: 72.4%
6,C/C=C/C1=CC(=O)C[C@H](c2ccc(Cl)cc2)C1,inconclusive: 42.5%
7,O=C(CSc1ncnc2sc3c(c12)CCCCC3)NCc1ccco1,inconclusive: 31%
8,O=C(Nc1ccc2c(c1)C(=O)NC2=O)c1cccc(Cl)c1,inactive: 10.4%
9,CCn1cc(S(=O)(=O)CC(=O)Nc2ccc3c(c2)OCCO3)c2ccccc21,inactive: 0.181%
10,CCC1=Nc2cc(C(=O)NCc3ccco3)ccc2Sc2ccccc21,inconclusive: 33.4%
11,CCOCCCn1cnc2c3cc(F)ccc3n(C)c2c1=O,inactive: -0.709%
12,Cc1ccc(NC(=S)N/N=C2\CC3CC=CC23)c(C)c1 (stereo not drawn),inactive: 0.269%
13,C=C(C)COc1ccc2c3c(c(=O)oc2c1OCC(=C)C)CCC3,inconclusive: 44%
14,O=C1c2ccccc2S(=O)(=O)N1Cc1nnc(-c2ccccc2Br)o1,inactive: 0.0777%
15,Cc1nc(Cl)sc1C(=O)Nc1ccc(C(C)(C)C)cc1,active: 80.1%
16,O=C1c2ccccc2C(=O)c2c1ccc1c(=O)n(C3CCCCC3)[nH]c21,inconclusive: 58%
17,CCN(CC)CCN(Cc1cc2cc3c(cc2[nH]c1=O)OCO3)C(=S)NCC(C)C,inconclusive: 58.7%
18,CC1(C)Cc2c(cnn2-c2ccccc2)C(NC(=O)c2ccoc2)C1 (stereo not drawn),inactive: 9.09%
19,O=C(Nc1ccccn1)c1cc2ccccc2o1,inconclusive: 40.5%
20,COc1cc(-c2cc(C(=O)Nc3c(Cl)cc(Cl)cc3Cl)c3ccccc3n2)cc(OC)c1OC,inactive: 6.97%
21,O=C(NCCc1ccccn1)c1cc(-c2ccccc2Cl)nc2ccccc12,inconclusive: 35.3%
